Measurements taken from US20250179161A1.
Changes are numbered by the printed parent chain. Results are given in words; binding and its absence hold for the method and conditions named. Some binding calls cover weakened binding; strength is not graded here.

B1: h2927 (antibody, V domains shown)
VH: EVQLLESGGGLVQPGGSLRLSCAASGFTFSNFGMSWVRQAPGKGLEWVASVRSGSGRTYYSDNVKGRFTISRDNSKNTLYLQMNSLRAEDTAVYYCVRYDHYTGTSDYWGQGTLVTVSS
VL: DVVMTQSPLSLPVTPGEPASISCKSSQSLLDYDGKTYLNWLLQKPGQSPQRLIYKVSNRDSGVPDRFSGSGSGTDFTLKISRVEAEDVGVYYCWQGTHFPRSFGQGTKVEIK
B2: h49k3G (antibody, V domains shown)
VH: B1 VH with S55G, T103S
VL: B1 VL with P15L, Y32S, S102T
B3: h4917G (antibody, V domains shown)
VH: B1 VH with S55G, T103S
VL: B1 VL with P15L, Y32S, S57T, D60E
B4: h2926 (antibody, V domains shown)
VH: B1 VH
VL: B1 VL with S102T
B5: h2929 (antibody, V domains shown)
VH: B1 VH
VL: B1 VL with K24R, L30V, K44R, T97S, F103Y
B6: h2826 (antibody, V domains shown)
VH: B1 VH with T103S
VL: B1 VL with S102T
B7: h2831 (antibody, V domains shown)
VH: B1 VH with T103S
VL: B1 VL with P15L, K55R, S57T, S61T
B8: h2931 (antibody, V domains shown)
VH: B1 VH
VL: B1 VL with P15L, K55R, S57T, S61T

What follows are binders tested against Amyloid Beta (Aβ) 1-42 (human) (assay: competition ELISA on plate-coated Aβ42 fibrils; competitor: biotinylated hBP (bapineuzumab)).

binding	Binder
binds	B1
binds	B2
binds	B3
binds	B4
binds	B5
binds	B6

The binders below were run against Aβ1-28 (human) (assay: SPR (BIAcore): antibody captured by anti-human Fc, Aβ1-28 as analyte in 2-fold dilutions, 1:1 binding fit overlaid).

binding	Binder
binds	B7
binds	B8
